# Source: the supplement of paper PMC8728848
# This is one part of the list.
# B1: CcfD (Bacteroides fragilis), Q5L9G4 (protein)
# chain: MKKQNSIYTLLIALLCFVSSCDYLGVSDQLAGGLQNTEQVFDNVSYTKRWYANVFAGIPDYSGINSVNVGAFKNPWTGMCDELVVGYGNSSKYNNSDRNAANMGFHRYGDCYKYIRQANIFLQKAHPIMTTGTQGDQLLEDELTQMKANVRFMRAFYHYLLFEQYGPIILVKDKIYNATEDQDVPRNTVDEVIEYIDSELTAVASELTQEPIFEDKDYRAWPTKGVALAVRAKLWLYAASPLLNGGYREALSVTNPDGTRLFPDYDAGKWEKALAACKDFIDYAEAGRYELYKEYKDDNGAVIDPDKSVYNLFQKYTHEIIWATANNDWGGMNGDAFDRRIAPRCEKNGLGSTGVTQELVDAFYMKDGFPVSATAYLPQSTLYQEEGYGTYKDQNDNFSKKYTNVTVSNRYLNREPRFYNTVFFNGRQWPVSCNQVLFYNGGNSGVQEGQATLTGYMLFKRFNRSVSLTNPGVASQFRPSIIFRLADFYLMYAEAANEVNPNDARVLKYLNLVRERAGLPDIETLNPAIRGNQELQRAAIQRERQIELATEGQRYFDVRRWMIADKNGEGRQNGYVHGMNVRGESNDKEDFNRIVEASQIVFNRKMYLYPMPDSEMRKTKNLVQNPGW
# Legend:
# Test in all cases: glycan array binding signal (z-score within array); higher = stronger binding
# Details in all cases: glycan notation: IUPAC condensed, linker removed
# Gal(a1-3)Gal(b1-4)GlcNAc = target: Gal(a1-3)Gal(b1-4)GlcNAc
# How it was run: (§1)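 The Consortium for Functional Glycomics database supplied 3228 glycan arrays, of which those lacking an available protein sequence were dropped. The binding signal, a within-array Z-score, was averaged across arrays of the same protein sequence and across linkers. Negative scores can be read as non-binding.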
# [1] = target: Gal(a1-3)Gal(b1-4)GlcNAc(b1-2)Man
# How it was run: as §1
# [2] = target: Gal(a1-3)Gal(b1-4)GlcNAc(b1-2)Man(a1-3)[Gal(a1-3)Gal(b1-4)GlcNAc(b1-2)Man(a1-6)]Man(b1-4)GlcNAc(b1-4)GlcNAc
# How it was run: as §1
# [3] = target: Gal(a1-3)Gal(b1-4)GlcNAc(b1-3)GalNAc
# How it was run: as §1
# [4] = target: Gal(a1-3)Gal(b1-4)GlcNAc(b1-6)GalNAc
# How it was run: as §1
# [5] = target: Gal(a1-3)Gal(b1-4)[Fuc(a1-3)]GlcNAc
# How it was run: as §1
# [6] = target: Gal(a1-3)Gal(b1-4)[Fuc(a1-3)]GlcNAc(b1-2)Man(a1-3)[Gal(a1-3)Gal(b1-4)[Fuc(a1-3)]GlcNAc(b1-2)Man(a1-6)]Man(b1-4)GlcNAc(b1-4)GlcNAc
# How it was run: as §1
# Gal(a1-3)GalNAc = target: Gal(a1-3)GalNAc
# How it was run: as §1
# [7] = target: Gal(a1-3)[Gal(a1-4)]Gal(b1-4)GlcNAc
# How it was run: as §1
# [8] = target: Gal(a1-4)Gal(b1-3)GlcNAc(b1-2)Man(a1-3)[Gal(a1-4)Gal(b1-3)GlcNAc(b1-2)Man(a1-6)]Man(b1-4)GlcNAc(b1-4)GlcNAc
# How it was run: as §1
# Gal(a1-4)Gal(b1-4)Glc = target: Gal(a1-4)Gal(b1-4)Glc
# How it was run: as §1
# Gal(a1-4)Gal(b1-4)GlcNAc = target: Gal(a1-4)Gal(b1-4)GlcNAc
# How it was run: as §1
# [9] = target: Gal(a1-4)Gal(b1-4)GlcNAc(b1-2)Man(a1-3)[Gal(a1-4)Gal(b1-4)GlcNAc(b1-2)Man(a1-6)]Man(b1-4)GlcNAc(b1-4)GlcNAc
# How it was run: as §1
# [10] = target: Gal(a1-4)Gal(b1-4)GlcNAc(b1-3)Gal(b1-4)Glc
# How it was run: as §1
# Gal(a1-4)GlcNAc = target: Gal(a1-4)GlcNAc
# How it was run: as §1
# Gal(a1-6)Glc = target: Gal(a1-6)Glc
# How it was run: as §1
# Gal(b1-2)Gal = target: Gal(b1-2)Gal
# How it was run: as §1
# Gal(b1-3)Gal = target: Gal(b1-3)Gal
# How it was run: as §1
# Gal(b1-3)Gal(b1-4)GlcNAc = target: Gal(b1-3)Gal(b1-4)GlcNAc
# How it was run: as §1
# Gal(b1-3)GalNAc = target: Gal(b1-3)GalNAc
# How it was run: as §1
# [11] = target: Gal(b1-3)GalNAc(a1-3)[Fuc(a1-2)]Gal(b1-4)Glc
# How it was run: as §1
# [12] = target: Gal(b1-3)GalNAc(a1-3)[Fuc(a1-2)]Gal(b1-4)GlcNAc
# How it was run: as §1
# Gal(b1-3)GalNAc(b1-3)Gal = target: Gal(b1-3)GalNAc(b1-3)Gal
# How it was run: as §1
# [13] = target: Gal(b1-3)GalNAc(b1-3)Gal(a1-4)Gal(b1-4)Glc
# How it was run: as §1
# [14] = target: Gal(b1-3)GalNAc(b1-4)Gal(b1-4)Glc
# How it was run: as §1
# [15] = target: Gal(b1-3)GalNAc(b1-4)[Neu5Ac(a2-3)]Gal(b1-4)Glc
# How it was run: as §1
# Gal(b1-3)GlcNAc = target: Gal(b1-3)GlcNAc
# How it was run: as §1
# [16] = target: Gal(b1-3)GlcNAc(a1-3)Gal(b1-4)GlcNAc
# How it was run: as §1
# [17] = target: Gal(b1-3)GlcNAc(a1-6)Gal(b1-4)GlcNAc
# How it was run: as §1
# Gal(b1-3)GlcNAc(b1-2)Man = target: Gal(b1-3)GlcNAc(b1-2)Man
# How it was run: as §1
binder,measurement,setting,value
B1,glycan array binding signal (z-score),Gal(a1-3)Gal(b1-4)GlcNAc,0.049
same,glycan array binding signal (z-score),[1],-0.588
same,glycan array binding signal (z-score),[2],0.804
same,glycan array binding signal (z-score),[3],-0.759
same,glycan array binding signal (z-score),[4],-0.246
same,glycan array binding signal (z-score),[5],2.52
same,glycan array binding signal (z-score),[6],0.883
same,glycan array binding signal (z-score),Gal(a1-3)GalNAc,-0.113
same,glycan array binding signal (z-score),[7],-1.43
same,glycan array binding signal (z-score),[8],-0.312
same,glycan array binding signal (z-score),Gal(a1-4)Gal(b1-4)Glc,-0.824
same,glycan array binding signal (z-score),Gal(a1-4)Gal(b1-4)GlcNAc,0.506
same,glycan array binding signal (z-score),[9],0.043
same,glycan array binding signal (z-score),[10],-0.785
same,glycan array binding signal (z-score),Gal(a1-4)GlcNAc,-0.962
same,glycan array binding signal (z-score),Gal(a1-6)Glc,-0.384
same,glycan array binding signal (z-score),Gal(b1-2)Gal,-0.246
same,glycan array binding signal (z-score),Gal(b1-3)Gal,-0.391
same,glycan array binding signal (z-score),Gal(b1-3)Gal(b1-4)GlcNAc,-0.502
same,glycan array binding signal (z-score),Gal(b1-3)GalNAc,0.274
same,glycan array binding signal (z-score),[11],-0.24
same,glycan array binding signal (z-score),[12],-0.384
same,glycan array binding signal (z-score),Gal(b1-3)GalNAc(b1-3)Gal,-0.456
same,glycan array binding signal (z-score),[13],0.496
same,glycan array binding signal (z-score),[14],0.161
same,glycan array binding signal (z-score),[15],0.857
same,glycan array binding signal (z-score),Gal(b1-3)GlcNAc,0.42
same,glycan array binding signal (z-score),[16],1.17
same,glycan array binding signal (z-score),[17],-0.988
same,glycan array binding signal (z-score),Gal(b1-3)GlcNAc(b1-2)Man,-0.752

# Pulled one by one from the list above, 2 records:
binder,measurement,setting,value
B1,glycan array binding signal (z-score),Gal(a1-4)GlcNAc,-0.962
same,glycan array binding signal (z-score),[11],-0.24
